Source: patent US20130012473A1, “COMBINED USE OF PHOSPHOLIPID AND SULFATE GROUPS-CARRYING POLYSACCHARIDES FOR INHIBITING METASTATIC SPREAD” (KTB TUMORFORSCHUNGSGESELLSCHAFT MBH, priority 2010, published 2013)

Tested on: B16.F10 melanoma cells
Assay: Removal of exogenous LysoPC from the medium (PC/LysoPC and free choline assays)
Type: cell-based, mouse
Text: Cell culture and LysoPC feeding: Mouse melanoma cell line B16.F10 (ATCC, CRL-6475) was passaged in vitro in DMEM as described before (Fritzsche, J. et al., Thromb. Haemost. 100:1166-1175 (2008)). Cells were routinely (monthly) tested to be negative of mycoplasms, their morphological appearance observed by microscopic means and examined for the expression of adhesion receptors and ligands by flow cytometry. LysoPC removal (1-Heptadecanoyl-2-hydroxy-sn-glycero-3-phosphocholine, (C17:0; HEP-LysoPC), Avanti Polar Lipids, Inc., or 1-Hexadecanoyl-sn-glycero-3-phosphocholine, (C16:0; HEX-LysoPC), Sigma, Taufkirchen, Germany was determined using 1×10^5 cells in 24-well tissue culture plates (Greiner BioOne, Frickenhausen, Germany). Non-cytotoxic LysoPC/BSA DMEM-solutions (FIG. 7 A) were prepared by adding 20-40 mg/ml bovine serum albumine (BSA, PAA Laboratories GmbH, Cölbe, Germany). Cell culture supernatants were collected from triplicates of LysoPC treated and untreated control wells. Cells were removed from tissue culture plates using trypsin/EDTA. Centrifuged supernatants and cell pellets were stored at −20° C. and −80° C. until analysis, respectively. […]
Determination of LysoPC concentration: LysoPC concentration was determined by an enzymatic PL (PC/LysoPC) assay containing phospholipase D and choline oxidase (mti diagnostics GmbH, Idstein, Germany). […] GlyceroPC was determined using the assay for free choline adding 1 IU/ml of sn-glycerol-3-phosphocholine phosphodiesterase (Sigma, Taufkirchen, Germany). […]
LysoPC removal was determined by measuring total choline (LysoPC and free choline) and subtracting the values of free choline as measured by a separate free choline assay (for details see FIG. 7 B-D).
B, C and D) Colorimetric assays for the quantification of LysoPC removal from the supernatant of B16.F10. The removal of the added LysoPC from the supernatant of B16.F10 cells was determined by a combination of two colorimetric assays. […]
In contrast, the second assay only quantifies free choline (FC) (C). […]

## CCCCCCCCCCCCCCCCC(=O)OC[C@@H](O)COP(=O)([O-])OCC[N+](C)(C)C [LysoPC]
B16.F10 and B16.F10 ELN cells, time-course, BSA added
  removal of LysoPC from the medium by cells: rapid reduction
LysoPC added at 300 μM-450 μM
  removed amount of LysoPC as multiple of the total amount of cellular PLs: approximately 125 times
At least 48 h after adding
  elimination of LysoPC from supernatant: total elimination
